This note sets out measurements from PubChem BioAssay AID445 (National Center for Advancing Translational Sciences (NCATS), 2006).

The list shows a part of the results. Further columns of the screen follow, without active or inactive calls. The list favours compounds with an active or inconclusive main result. Words in brackets tell the shape of the fitted curve; partial curves, single points and poor fits give uncertain potencies.

A short description of the assay: IkB Signaling. Particulars: ABC-DLBCL IkBa-CBG/CBR dual luciferase ratio (green luciferase fused to IkBa over red control in OCI-Ly3 lymphoma cells), 4 h; measured here: control luc red channel unless noted. Summed up: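 In this assay, an IκBα–CBG68 fusion accumulates when IKK-driven degradation is blocked; native CBR normalizes for cell number. OCI-Ly3 cells were treated 4 h with compound and doxycycline, then green and red light read after Chroma-Glo addition.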
The AC50 is the midpoint of the concentration-response curve, whichever way the signal moves. In the case of `Cc1nnc(NC(=O)CSc2nc3c([nH]c4ccccc43)c(=O)n2-c2ccccc2)s1`, the AC50 was 0.316 µM [rising, full curve].
The figure for `CC(C)Oc1ccc(C(=O)Nc2ccc3c(c2)CCCN3C(=O)c2cccs2)cc1` is 12.6 µM [falling, partial curve]; for `COc1ccc(Cn2c(CNC(=O)c3ccc(N(C)C)cc3)nc3cccnc32)cc1` it is 1 µM [rising, full curve]; for `O=C(Cn1cc(SCc2ccc(C(F)(F)F)cc2)c2ccccc21)N1CCCCCC1` it is 5.01 µM [falling, partial curve].
The value for `CC(C)(C)OC(=O)N1CCC(c2c(C(=O)NC3CCCCC3)cnn2-c2cccc(F)c2)CC1` was 15.8 µM [falling, single point]; that for `O=C1C(Cl)=C(Nc2ccc(S(=O)(=O)Nc3ccccn3)cc2)C(=O)c2ccccc21` was 6.31 µM [rising, partial curve] [measured here: IkB-luc green channel].
The figure for `Cc1cccc(C(=O)Nc2cccc(C(=O)OCc3cc(=O)n4nc(C(C)C)sc4n3)c2)c1` is 12.6 µM [falling, partial curve].
Consider `CC(NC(=O)c1ccc(NC(=O)c2nsc3ccccc23)cc1)c1ccccc1` (stereo unspecified), for which the half-maximal activity concentration (AC50) is 0.0794 µM [falling, full curve].
The figure for `O=C(Nc1ccccc1)N(Cc1ccc2c(c1)OCO2)Cc1nc2ccccc2c(=O)[nH]1` is 12.6 µM [falling, partial curve]; for `O=C(COc1ccccc1)NCc1ccc2c(c1)CCN2C(=O)c1ccccc1` it is 0.0794 µM [falling, full curve, poor fit].
The value for `COc1ccc(OC)c(S(=O)(=O)N2Cc3ccccc3CC2C(=O)Nc2nccs2)c1` (stereo unspecified) was 5.01 µM [falling, partial curve]; that for `COc1ccc(-c2cc(NCc3ccccn3)n3ncnc3n2)cc1` was 39.8 µM [rising, single point] [measured here: IkB-luc green channel]; that for `Cc1ccc(C)c(Nc2nc(-c3ccccc3)c3cc(Br)ccc3n2)c1` was 25.1 µM [falling, partial curve, poor fit].
The figure for `COc1ccc(CCNC(=O)CCCCn2c(=O)c3ccccc3n(CC(=O)Nc3ccc(C)cc3C)c2=O)cc1OC` is 39.8 µM [falling, single point].
`CCN(CCNC(=O)CS(=O)(=O)Cc1nc(-c2cccc(OC)c2)oc1C)c1ccccc1`: the AC50 is 15.8 µM [falling, partial curve].
The figure for `O=C(Nc1cccc(Cl)c1)c1cc(-c2ccc3c(c2)OCCO3)on1` is 0.0398 µM [falling, full curve]; for `Cc1nnc(N2CCCC(C(=O)Nc3cccc(C(F)(F)F)c3)C2)c2nn(-c3ccccc3)c(C)c12` (stereo unspecified) it is 39.8 µM [falling, partial curve].
The figure for `Cc1cccc(N(C)C(CNS(=O)(=O)c2ccccc2)c2ccccc2)c1` (stereo unspecified) is 12.6 µM [falling, partial curve].
In the case of `CCN(CC)CCNC(=O)C(=O)NCC(c1cccnc1)N1CCN(c2ccccc2)CC1` (stereo unspecified), the concentration at half-maximal activity (AC50) was 39.8 µM [falling, single point].
As to `CCC(=O)c1ccc(OCC(O)Cn2c(C)nc3ccccc32)cc1` (stereo unspecified), the AC50 is 5.01 µM [falling, partial curve].
Consider `CC(C)S(=O)(=O)c1oc(-c2ccc(F)cc2)nc1S(=O)(=O)c1ccccc1`, for which the AC50 is 1.58 µM [falling, partial curve].
The figure for `COc1cc(NC(=O)c2nn(-c3ccc(C)cc3)c(=O)c3c2c2ccccc2n3C)cc(OC)c1OC` is 20 µM [rising, partial curve, poor fit]; for `CCOC(=O)c1ccccc1NS(=O)(=O)c1ccc(N2CCCCS2(=O)=O)cc1` it is 15.8 µM [falling, partial curve].
On to `CCOc1ccc(-n2nc(CO)c(C(=O)NCc3cccnc3)n2)cc1`, for which the AC50 was 15.8 µM [falling, single point].
The figure for `COc1cccc(N2CCN(C(=O)c3cc4c(=O)n(Cc5ccccc5)ccc4nc3C)CC2)c1` is 25.1 µM [falling, single point].
The value for `Cc1cccn2c(=O)c(C(=O)NCc3ccccc3Cl)c(O)nc12` was 12.6 µM [falling, partial curve]; that for `Cc1ccc(NC(=O)CC2SC3=NCCN3C2=O)cc1` (stereo unspecified) was 12.6 µM [falling, partial curve]; that for `COc1cc(C)ccc1OCCCn1c(-c2ccc(Cl)cc2)nc2ccccc2c1=O` was 12.6 µM [falling, partial curve].
The value for `Cc1cccc(NC(=O)c2sc3nc4c(cc3c2N)CCCCCC4)c1C` was 1.26 µM [rising, full curve] [measured here: IkB-luc green channel]; that for `COc1ccc(-n2nc(C(=O)Nc3ccc(Cl)cn3)c3c4ccccc4n(C)c3c2=O)cc1Cl` was 12.6 µM [falling, partial curve]; that for `Cc1ccc(CCNC(=O)c2cc(Nc3ccc(C)c(C)c3)nc3ccccc23)cc1` was 0.2 µM [falling, full curve, poor fit].
With `COc1ccc(C2C(C(N)=O)=C(C)Nc3nc(CCCO)nn32)cc1` (stereo unspecified), the AC50 is 1 µM [rising, full curve].
The figure for `CC(C)C1C(=O)Nc2ccc(S(=O)(=O)NCc3ccc(Cl)cc3)cc21` (stereo unspecified) is 20 µM [falling, partial curve]; for `Cc1ccc(NC(=O)CSc2c3c(nc4ccccc24)CCCC3)cc1F` it is 12.6 µM [falling, partial curve]; for `NC(=O)c1nsnc1-c1ccccc1O` it is 12.6 µM [falling, partial curve].
The figure for `CC(=O)c1cccc(NC(=O)c2c(-c3ccccc3)c(-c3ccccc3)nn(C)c2=O)c1` is 25.1 µM [falling, partial curve]; for `Cc1cc(C(F)(F)F)nn1-c1nc(-c2ccccc2)cc(C(F)(F)F)n1` it is 3.16 µM [rising, full curve, poor fit].
The value for `Cc1cc(=O)n(CC(=O)Nc2ccc([N+](=O)[O-])cc2)c(-n2nc(C)cc2C)n1` was 6.31 µM [rising, single point]; that for `COc1ccc(CCN2C(=O)c3[nH]nc(-c4ccccc4O)c3C2c2cccc(OC)c2)cc1` (stereo unspecified) was 12.6 µM [falling, partial curve]; that for `CCOC(=O)c1ccccc1NC(=O)Cn1c(=O)n(-c2cccc(C)c2)c(=O)c2c1c1cc(C)ccc1n2C` was 1.58 µM [falling, full curve].
Consider `COc1ccc2c(C)cc(SCC(=O)Nc3nsc(-c4ccccc4C)n3)nc2c1`, for which the AC50 is 7.94 µM [falling, full curve, poor fit].
As to `O=C(NCC(c1ccc2c(c1)OCO2)N1CCOCC1)c1cccc(Cl)c1` (stereo unspecified), the AC50 is 0.0794 µM [rising, full curve, poor fit].
The figure for `Clc1ccc2c(N3CCCC3)ccnc2c1` is 2.51 µM [falling, full curve]; for `O=C(NCc1ccc(Cl)cc1)C(=O)NCC(c1cccs1)S(=O)(=O)c1cccs1` (stereo unspecified) it is 12.6 µM [falling, partial curve]; for `Clc1cccc(-n2ncc3c(N4CCC(Cc5ccccc5)CC4)ncnc32)c1` it is 3.16 µM [falling, partial curve, poor fit].
The figure for `CCOC(=O)c1c(C)oc2nc(C)nc(NCc3ccc(OC)cc3OC)c12` is 25.1 µM [falling, single point]; for `O=C(CSc1nncn2c1cc1sccc12)Nc1ccc(Br)cc1F` it is 10 µM [falling, partial curve]; for `O=C(Cn1c(=O)nc(-c2ccccc2)c2ccccc21)NCc1ccc(Cl)cc1` it is 31.6 µM [falling, single point].
The figure for `CCc1ccc(NC(=O)CCn2nc(C)c(S(=O)(=O)N3CCCCC3)c2C)cc1` is 3.98 µM [falling, partial curve]; for `CCOC(=O)C1(C)C=C(Nc2cccc(C(=O)O)c2)C(=O)N1c1cccc(C(=O)O)c1` (stereo unspecified) it is 12.6 µM [falling, partial curve].
For `CCCCc1nn2c(=O)cc(COC(=O)c3ccc(NC(=O)c4ccccc4C)cc3)nc2s1`, the AC50 is 0.0398 µM [falling, full curve].
The value for `COc1cc2c(cc1OC)C(COc1ccccc1OC)N(C(=O)COc1ccc(Cl)cc1)CC2` (stereo unspecified) was 20 µM [falling, partial curve]; that for `COc1ccc(OC)c(CNC(=O)Cc2ccc(NC(=O)N3CCSc4ncccc43)cc2)c1` was 25.1 µM [falling, single point].
The value for `c1ccc(-c2nc(NCCCN3CCOCC3)c3ccccc3n2)cc1` was 12.6 µM [falling, partial curve].
The figure for `CN(c1ccccc1)S(=O)(=O)c1ccc(NC(=O)c2cc(=O)c3ccccc3o2)cc1` is 10 µM [falling, partial curve]; for `COc1ccc(Nc2cc(C(=O)NCCCN3CCN(c4ccc(OC)cc4)CC3)c3ccccc3n2)cc1` it is 31.6 µM [falling, single point]; for `O=C(CCn1cnnn1)Nc1ccc(F)cc1` it is 0.0501 µM [falling, full curve].
As to `Cc1ccc(CNC(=O)c2coc(=O)c3ccccc23)o1`, the AC50 was 20 µM [rising, partial curve] [measured here: IkB-luc green channel].
Consider `COc1ccc(-n2ncc(C(=O)NCCc3ccsc3)c2C2CCN(C(=O)OC(C)(C)C)CC2)cc1`, for which the AC50 is 10 µM [falling, partial curve].
The value for `COc1cccc(-c2nc(-c3ccccc3)no2)c1` was 15.8 µM [falling, partial curve]; that for `Cc1noc(-c2ccc(N3CCCCC3)c([N+](=O)[O-])c2)n1` was 12.6 µM [falling, partial curve].
